From PubChem BioAssay AID504834 (National Center for Advancing Translational Sciences (NCATS), 2011)
Hit rate of the full screen: of about 320,000 compounds, about 22,000 (6.9%) were called active. This list was built around the results that the source calls inconclusive (neither active nor inactive); the mix of calls is not that of the screen. Calls follow the shape of the dose curve; as a rule, active = well fitted inhibition curve with a large enough effect; inconclusive = small, poorly fitted or top-dose-only effect, or another doubt; inactive = no such curve, though single readings can be large or run the other way. Potencies of inconclusive entries are doubtful fits and often do not repeat.

assay: Primary qHTS for delayed death inhibitors of the malarial parasite plastid, 96 hour incubation; conditions: P. falciparum luciferase reporter growth; series mostly up to 28.7 µM
In short: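 P. falciparum expressing integrated firefly luciferase grown in erythrocytes (2% hematocrit, 0.05% parasitemia final) with compounds for 96 hours at 37 C, 5% CO2. Growth inhibition read as loss of luminescence after adding luciferase detection reagent.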
Potency is read from the fitted curve at half-maximal effect.

Compound | Potency
Cc1cc(C(=O)CN2C(=O)NC3(CCCc4ccccc43)C2=O)c(C)n1Cc1ccccc1 (stereo not given) | active: 1.17 µM
O=C(COC(=O)c1cccs1)NCCc1ccc(F)cc1 | inactive
COC(=O)/C=C1\N/C(=N\c2nc(C)cc(C)n2)N(c2ccc(C)c(C)c2)C1=O | inconclusive: 9.28 µM [inhibitor, single point]
CCCc1ccc2oc(C(=O)N(C)Cc3cnccn3)c(C)c2c1 | active: 10.4 µM
CC(=O)c1cccc(NC(=O)c2csc3c2CCCCC3)c1 | inconclusive: 18.5 µM [inhibitor, single point]
Cc1cc(=O)oc2cc(OCc3ccc(S(=O)(=O)N4CCOCC4)cc3)ccc12 | inconclusive: 18.5 µM [inhibitor, single point]
CC(=O)Nc1cccc(OCCCNC(=O)c2cccc3ccccc23)c1 | inconclusive: 10.4 µM [inhibitor, single point]
COc1ccccc1-c1cc(C(F)(F)F)nc(NCc2cccs2)n1 | active: 5.86 µM
CCOc1ccc(C(=O)NC(C(=O)NCC(c2cccs2)N(C)C)C(C)C)cc1 (stereo not given) | inconclusive: 5.22 µM [inhibitor, partial curve]
O=S(=O)(NCC1CCCO1)c1ccc(S(=O)(=O)N(Cc2ccc(F)cc2)Cc2ccccn2)cc1 (stereo not given) | inconclusive: 9.28 µM [inhibitor, partial curve, poor fit]
COc1cc(-c2nc(CN3CCN(CC(C)C)C(=O)[C@@H]3C)c(C)o2)ccc1F | inactive
COc1ccc(C(=O)OCCN=C2NS(=O)(=O)c3ccccc32)cc1OC | inconclusive: 7.38 µM [inhibitor, partial curve, poor fit]
CCCCC(=O)Nc1cccc(NC(=S)NC(C)=O)c1 | inactive
CN1CCc2c(sc3c2c(=O)n(-c2ccccc2)c2n[nH]c(=S)n32)C1 | inactive
CCc1nnc(NC(=O)CSc2nc(-c3ccccc3)cc(-c3ccc(OC)cc3)c2C#N)s1 | inconclusive: 18.5 µM [inhibitor, single point]
Cc1cc(-c2ccc(C)c(S(=O)(=O)NCCCN3CCN(c4ccccc4)CC3)c2)on1 | inconclusive: 10.4 µM [inhibitor, single point]
O=[N+]([O-])c1cccc(/C=N/N2CCN(Cc3ccccc3)CC2)c1 | inconclusive: 2.62 µM [inhibitor, partial curve, poor fit]
Cc1cccc(NC(=S)NCc2ccc3c(c2)cc(C)n3C)c1C | inconclusive: 18.5 µM [inhibitor, single point]
Cc1cc(NC(=O)CSc2nc3c(c(=O)n2C)SCC3)no1 | inconclusive: 20.8 µM [inhibitor, single point]
CCOC(=O)C(C)Sc1ncnc2c1nnn2-c1ccc(F)cc1 (stereo not given) | inconclusive: 16.5 µM [inhibitor, partial curve, poor fit]
CCC(Oc1ccc2c(=O)c(-c3ccccc3OC)coc2c1)C(=O)OCc1ccccc1 (stereo not given) | inconclusive: 11.7 µM [inhibitor, single point]
CCc1nnc(NC(=O)CSc2nc(C)cs2)s1 | inactive
CCOc1ccc(-c2nnc3ccc(SC(C)C)nn23)cc1 | inconclusive: 8.28 µM [inhibitor, partial curve, poor fit]

Compound | Potency
COC(=O)C1(Cc2cc(-c3cccnc3)no2)CCN(C(=O)OC(C)(C)C)CC1 | active: 10.4 µM
Cc1ccc(-n2c(SCC(N)=O)nnc2-c2cccnc2)c(C)c1 | inconclusive: 18.5 µM [inhibitor, single point]
O=C(CCN1C(=O)c2ccccc2C1=O)Nc1ccccn1 | inconclusive: 18.5 µM [inhibitor, single point]
O=C(c1ccccn1)N1N=C2/C(=C/c3ccccc3)CCCC2C1c1ccccc1 (stereo not given) | inconclusive: 11.7 µM [inhibitor, single point]
CCOc1ncccc1C(=O)Nc1cccc(S(=O)(=O)N2CCCCC2)c1 | active: 7.38 µM
Cc1nc(NC(=O)/C=C/c2ccccc2)n[nH]1 | inconclusive: 14.7 µM [inhibitor, single point]
COc1ccccc1C(=O)Nc1ccc(NC(=O)c2ccco2)c(C)c1 | inconclusive: 13.1 µM [inhibitor, partial curve, poor fit]
CCOC(=O)c1sc(NC(=O)CSc2ncn[nH]2)c(C#N)c1C | inconclusive: 10.4 µM [inhibitor, partial curve]
COC(=O)C1CN(C(=O)COc2cc(C)c(Cl)c(C)c2)c2ccccc2O1 (stereo not given) | inconclusive: 2.62 µM [inhibitor, full curve, poor fit]
COc1ccc(C(=O)Nc2ccc(N3CCN(c4ccc(OC)cc4)CC3)c(C#N)c2)cc1 | inconclusive: 18.5 µM [inhibitor, single point]
CC(=O)Nc1ccc(S(=O)(=O)N/N=C/c2ccc(C)o2)cc1 | inactive
Cc1cc2c(cc1S(=O)(=O)CCC(=O)N(C)Cc1ccccc1)OCC(=O)N2 | inactive
COc1ccc(OC)c(CN2CCN(C(=O)Cc3ccccc3)CC2)c1 | active: 11.7 µM
O=C(c1n[nH]c2ccccc12)N1CCOCC1 | active: 14.7 µM
Fc1cccc(Cl)c1CNCCCSc1ncccn1 | active: 13.1 µM
Cc1cc(C)c(NC(=S)N(C)C)cc1C | inactive
Cc1ccc(C)c(S(=O)(=O)N2CCCOC2CNC(=O)C(=O)NCc2ccncc2)c1 (stereo not given) | inconclusive: 6.57 µM [inhibitor, partial curve, poor fit]
CCC(C)Sc1cccc(-c2nc3cc(C)ccn3c2NCc2ccccc2)c1 (stereo not given) | inconclusive: 18.5 µM [inhibitor, single point]
Cc1nc(NC(=S)Nc2ccccc2)sc1C | inactive
Cc1ccc(-n2ncc3c(NNC(=O)c4ccco4)ncnc32)cc1C | inconclusive: 18.5 µM [inhibitor, partial curve, poor fit]
Cc1ccc2sc(N(CCCN(C)C)C(=O)c3nc4ccccc4s3)nc2c1C | inactive
COc1ccc(-c2nc(CN3CCCCC3c3cccnc3)c(C)o2)c(F)c1 (stereo not given) | inconclusive: 9.28 µM [inhibitor, single point]

Quoted at random: three entries already listed
Compound | Potency
Cc1nc(NC(=O)/C=C/c2ccccc2)n[nH]1 | inconclusive: 14.7 µM [inhibitor, single point]
Fc1cccc(Cl)c1CNCCCSc1ncccn1 | active: 13.1 µM
Cc1ccc(-n2c(SCC(N)=O)nnc2-c2cccnc2)c(C)c1 | inconclusive: 18.5 µM [inhibitor, single point]
